Results are given in words; binding and its absence hold for the method and conditions named. Binding seen in cells or lysates may run through a third protein. Some binding calls cover weakened binding; strength is not graded here. Where a sequence is shown, tags or fusion partners need not be part of it.
Legend:
[1] = biological target: T1, Flag-MTMR7 (myotubularin-related protein 7) (UniProt Q9Y216); test: co-IP; lysate of SSCs transfected with Flag-MTMR7 or empty vector; immunoprecipitated with Flag-beads; Western blot
T1 sequence: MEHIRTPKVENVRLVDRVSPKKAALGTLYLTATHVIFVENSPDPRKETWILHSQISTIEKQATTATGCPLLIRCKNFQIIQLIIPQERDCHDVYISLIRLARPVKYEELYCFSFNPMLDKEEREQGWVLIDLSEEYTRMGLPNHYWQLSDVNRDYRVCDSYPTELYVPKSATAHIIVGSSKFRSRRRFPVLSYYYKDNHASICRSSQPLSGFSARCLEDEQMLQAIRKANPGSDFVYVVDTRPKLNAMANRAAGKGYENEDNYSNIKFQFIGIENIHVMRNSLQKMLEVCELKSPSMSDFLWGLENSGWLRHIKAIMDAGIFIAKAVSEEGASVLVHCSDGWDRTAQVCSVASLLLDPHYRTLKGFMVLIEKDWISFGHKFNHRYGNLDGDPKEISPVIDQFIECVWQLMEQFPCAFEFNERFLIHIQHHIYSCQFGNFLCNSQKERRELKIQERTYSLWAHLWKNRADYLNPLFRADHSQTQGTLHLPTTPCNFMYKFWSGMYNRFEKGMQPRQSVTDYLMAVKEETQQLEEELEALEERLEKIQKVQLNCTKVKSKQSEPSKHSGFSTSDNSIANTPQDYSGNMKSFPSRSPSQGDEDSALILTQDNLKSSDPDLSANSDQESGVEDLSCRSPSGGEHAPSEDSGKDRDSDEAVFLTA

Sequences of proteins named here, by UniProt entry; tags and fusion partners are left off.
UniProt O75369: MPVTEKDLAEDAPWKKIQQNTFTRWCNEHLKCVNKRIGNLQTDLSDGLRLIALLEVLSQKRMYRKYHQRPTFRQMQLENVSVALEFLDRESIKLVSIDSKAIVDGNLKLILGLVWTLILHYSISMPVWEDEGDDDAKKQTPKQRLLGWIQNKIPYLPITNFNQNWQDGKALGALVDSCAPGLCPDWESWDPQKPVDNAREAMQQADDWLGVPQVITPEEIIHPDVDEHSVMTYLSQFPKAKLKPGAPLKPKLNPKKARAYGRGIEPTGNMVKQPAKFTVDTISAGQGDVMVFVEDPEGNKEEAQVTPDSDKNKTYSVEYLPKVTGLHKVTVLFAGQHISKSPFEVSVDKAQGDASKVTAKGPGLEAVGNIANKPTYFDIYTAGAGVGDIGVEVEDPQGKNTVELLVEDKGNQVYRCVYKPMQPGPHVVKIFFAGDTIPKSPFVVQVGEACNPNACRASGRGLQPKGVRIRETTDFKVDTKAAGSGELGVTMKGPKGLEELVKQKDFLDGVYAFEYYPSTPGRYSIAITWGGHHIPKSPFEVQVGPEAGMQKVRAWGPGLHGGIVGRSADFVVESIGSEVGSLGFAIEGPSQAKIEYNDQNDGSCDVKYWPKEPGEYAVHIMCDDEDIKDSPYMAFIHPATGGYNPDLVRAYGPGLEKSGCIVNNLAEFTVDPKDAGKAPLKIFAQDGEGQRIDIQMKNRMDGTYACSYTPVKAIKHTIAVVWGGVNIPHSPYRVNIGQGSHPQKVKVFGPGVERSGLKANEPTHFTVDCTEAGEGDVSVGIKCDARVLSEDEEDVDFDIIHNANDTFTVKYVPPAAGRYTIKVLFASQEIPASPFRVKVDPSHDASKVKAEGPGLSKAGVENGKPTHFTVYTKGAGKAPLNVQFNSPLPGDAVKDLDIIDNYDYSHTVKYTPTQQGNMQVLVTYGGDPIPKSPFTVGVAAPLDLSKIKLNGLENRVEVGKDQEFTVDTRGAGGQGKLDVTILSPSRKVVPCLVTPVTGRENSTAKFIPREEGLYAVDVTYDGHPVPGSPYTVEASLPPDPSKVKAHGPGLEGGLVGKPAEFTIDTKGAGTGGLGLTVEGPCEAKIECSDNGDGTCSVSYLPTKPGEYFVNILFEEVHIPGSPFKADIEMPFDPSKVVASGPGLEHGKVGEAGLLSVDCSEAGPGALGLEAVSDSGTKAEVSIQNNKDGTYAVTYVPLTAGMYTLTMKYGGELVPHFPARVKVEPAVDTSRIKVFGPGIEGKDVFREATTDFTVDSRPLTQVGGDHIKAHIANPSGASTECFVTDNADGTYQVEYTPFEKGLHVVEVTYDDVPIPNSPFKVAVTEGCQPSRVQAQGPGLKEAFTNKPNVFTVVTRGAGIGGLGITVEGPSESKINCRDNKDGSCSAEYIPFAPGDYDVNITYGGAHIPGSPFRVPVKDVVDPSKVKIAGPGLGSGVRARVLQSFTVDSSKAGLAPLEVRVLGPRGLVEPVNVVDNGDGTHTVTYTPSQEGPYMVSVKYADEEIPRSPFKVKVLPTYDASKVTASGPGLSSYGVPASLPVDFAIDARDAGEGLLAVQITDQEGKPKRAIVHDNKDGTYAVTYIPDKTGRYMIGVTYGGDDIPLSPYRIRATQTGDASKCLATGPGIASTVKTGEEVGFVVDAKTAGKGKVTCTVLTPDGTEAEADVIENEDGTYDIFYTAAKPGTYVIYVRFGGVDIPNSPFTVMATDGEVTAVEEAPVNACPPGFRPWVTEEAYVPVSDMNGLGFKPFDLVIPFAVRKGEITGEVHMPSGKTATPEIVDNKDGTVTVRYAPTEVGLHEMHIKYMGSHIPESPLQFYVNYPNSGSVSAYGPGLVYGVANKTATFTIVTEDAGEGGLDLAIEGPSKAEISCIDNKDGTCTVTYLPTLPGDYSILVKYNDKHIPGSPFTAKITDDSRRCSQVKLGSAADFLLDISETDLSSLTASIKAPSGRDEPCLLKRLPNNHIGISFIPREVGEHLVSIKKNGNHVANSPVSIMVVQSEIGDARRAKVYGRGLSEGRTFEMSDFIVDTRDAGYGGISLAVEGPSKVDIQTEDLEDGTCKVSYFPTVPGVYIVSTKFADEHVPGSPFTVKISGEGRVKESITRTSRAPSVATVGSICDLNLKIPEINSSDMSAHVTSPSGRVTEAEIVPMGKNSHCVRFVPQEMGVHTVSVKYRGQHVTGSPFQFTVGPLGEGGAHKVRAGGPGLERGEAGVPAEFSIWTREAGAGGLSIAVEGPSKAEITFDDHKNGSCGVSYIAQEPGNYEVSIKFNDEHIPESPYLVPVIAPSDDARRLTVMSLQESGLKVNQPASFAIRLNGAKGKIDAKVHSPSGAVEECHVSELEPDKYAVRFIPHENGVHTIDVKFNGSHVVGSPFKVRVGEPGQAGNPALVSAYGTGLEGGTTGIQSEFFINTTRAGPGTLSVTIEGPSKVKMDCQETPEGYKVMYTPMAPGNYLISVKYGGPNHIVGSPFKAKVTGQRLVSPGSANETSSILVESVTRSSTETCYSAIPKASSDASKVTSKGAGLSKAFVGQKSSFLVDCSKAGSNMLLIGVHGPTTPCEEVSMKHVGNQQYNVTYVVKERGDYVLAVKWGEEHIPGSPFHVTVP

[2] = biological target: filamin B (FLNB) (human (endogenous in human SSC line)) (UniProt O75369); test: co-IP; lysate of SSCs transfected with Flag-MTMR7 or empty vector; immunoprecipitated with anti-FLNB antibodies; Western blot

| Molecule | binding [1] | binding [2] |
| --- | --- | --- |
| filamin B (FLNB) (from UniProt O75369 1-2602) | binds |  |
| Flag-MTMR7 (myotubularin-related protein 7) (enzyme, UniProt Q9Y216 1-660) MEHIRTPKVENVRLVDRVSPKKAALGTLYLTATHVIFVENSPDPRKETWILHSQISTIEKQATTATGCPLLIRCKNFQIIQLIIPQERDCHDVYISLIRLARPVKYEELYCFSFNPMLDKEEREQGWVLIDLSEEYTRMGLPNHYWQLSDVNRDYRVCDSYPTELYVPKSATAHIIVGSSKFRSRRRFPVLSYYYKDNHASICRSSQPLSGFSARCLEDEQMLQAIRKANPGSDFVYVVDTRPKLNAMANRAAGKGYENEDNYSNIKFQFIGIENIHVMRNSLQKMLEVCELKSPSMSDFLWGLENSGWLRHIKAIMDAGIFIAKAVSEEGASVLVHCSDGWDRTAQVCSVASLLLDPHYRTLKGFMVLIEKDWISFGHKFNHRYGNLDGDPKEISPVIDQFIECVWQLMEQFPCAFEFNERFLIHIQHHIYSCQFGNFLCNSQKERRELKIQERTYSLWAHLWKNRADYLNPLFRADHSQTQGTLHLPTTPCNFMYKFWSGMYNRFEKGMQPRQSVTDYLMAVKEETQQLEEELEALEERLEKIQKVQLNCTKVKSKQSEPSKHSGFSTSDNSIANTPQDYSGNMKSFPSRSPSQGDEDSALILTQDNLKSSDPDLSANSDQESGVEDLSCRSPSGGEHAPSEDSGKDRDSDEAVFLTA |  | binds |
